We go through one substance from patent publication US20150150950A1.

Chains of the proteins cited; added tags and fusions are not shown. Lines headed by an entry give the natural chain unless they say otherwise; changes in a name come on top. Residues count along the entry.
UniProt Q9WV60: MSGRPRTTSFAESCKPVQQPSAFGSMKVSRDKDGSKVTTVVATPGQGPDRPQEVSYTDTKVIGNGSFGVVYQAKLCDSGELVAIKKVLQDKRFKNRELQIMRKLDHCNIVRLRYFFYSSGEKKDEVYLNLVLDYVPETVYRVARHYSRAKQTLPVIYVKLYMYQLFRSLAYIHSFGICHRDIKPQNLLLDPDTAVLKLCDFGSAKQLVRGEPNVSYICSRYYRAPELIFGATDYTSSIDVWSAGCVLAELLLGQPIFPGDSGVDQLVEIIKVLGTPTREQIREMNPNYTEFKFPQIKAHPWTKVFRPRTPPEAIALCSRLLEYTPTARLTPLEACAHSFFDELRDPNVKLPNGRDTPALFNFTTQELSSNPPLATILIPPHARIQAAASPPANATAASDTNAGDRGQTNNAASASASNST
UniProt P47811, residues 2-360: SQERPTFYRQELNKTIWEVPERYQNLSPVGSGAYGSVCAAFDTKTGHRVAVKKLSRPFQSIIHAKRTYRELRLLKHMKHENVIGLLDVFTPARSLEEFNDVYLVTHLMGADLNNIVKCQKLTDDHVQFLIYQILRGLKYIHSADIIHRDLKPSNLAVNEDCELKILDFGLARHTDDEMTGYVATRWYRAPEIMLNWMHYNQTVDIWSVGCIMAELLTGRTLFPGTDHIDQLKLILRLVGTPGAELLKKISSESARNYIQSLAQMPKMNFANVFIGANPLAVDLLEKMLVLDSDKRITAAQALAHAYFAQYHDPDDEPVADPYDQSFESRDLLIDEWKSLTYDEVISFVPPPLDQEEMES

The assay addresses GSK3β (endogenous, MKK6 transgenic mouse thymocytes) (mouse) (UniProt Q9WV60). The experiment in a line: co-immunoprecipitation with anti-GSK3β from MKK6 thymocyte extracts, Western blot (FIG. 2F).

Results are given in words; binding and its absence hold for the method and conditions named. In cells and extracts the contact can be indirect. Some results given as binding are weak or reduced against the parent protein; the word gives no strength.

Regarding “p38 MAPK (endogenous, MKK6 transgenic mouse thymocytes) (from UniProt P47811 2-360) (enzyme)”, the binding result was “binds”.
